Results reported in US20120283120A1, “SCREENING METHOD” (Takeda Pharmaceutical Company Limited, priority 2009, published 2012).
At least one structure is not confirmed: it was looked up by name or label, or the drawing left a doubt.

Protein sequences, listed by entry. Tags and fused reporters are not part of them. Chains listed by the source or under a name are the forms on record and can include a tag or linker.
UniProt P10275, with tags, fused parts or gaps isoform P10275-3 DUP78-80/DEL470-473: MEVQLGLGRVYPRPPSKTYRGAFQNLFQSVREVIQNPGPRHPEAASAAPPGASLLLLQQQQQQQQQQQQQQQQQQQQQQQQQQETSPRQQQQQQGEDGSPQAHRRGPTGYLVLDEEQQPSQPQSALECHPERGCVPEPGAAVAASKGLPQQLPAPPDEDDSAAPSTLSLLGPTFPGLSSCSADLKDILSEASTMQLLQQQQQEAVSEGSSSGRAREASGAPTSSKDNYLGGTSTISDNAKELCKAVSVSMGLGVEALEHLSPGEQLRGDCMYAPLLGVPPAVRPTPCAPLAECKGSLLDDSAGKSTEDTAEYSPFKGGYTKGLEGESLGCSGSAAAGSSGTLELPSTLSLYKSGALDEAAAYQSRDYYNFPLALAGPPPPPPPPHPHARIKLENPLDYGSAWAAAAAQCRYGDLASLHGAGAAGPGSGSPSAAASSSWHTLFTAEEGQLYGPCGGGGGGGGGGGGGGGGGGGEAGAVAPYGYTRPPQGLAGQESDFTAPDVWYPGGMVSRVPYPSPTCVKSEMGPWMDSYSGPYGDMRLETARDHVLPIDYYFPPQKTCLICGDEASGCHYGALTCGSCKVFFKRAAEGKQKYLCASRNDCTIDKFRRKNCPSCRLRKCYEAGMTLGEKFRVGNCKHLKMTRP

Legend:
[1] = test system: JDCaP-hr cells; assay: JDCaP-hr cell proliferation with added compound; assay type: cell-based, human
[2] = target: T1, ARaiv1 (Homo sapiens, UniProt P10275, DEL470-473/DUP78-80); assay: ARaiv1 2×PSA reporter luciferase assay in COS7 cells; assay type: cell-based; conditions: 24 hr after addition
T1 construct: ORF clone of ARaiv1 having intact exon 1 and no defect on the N-terminal side was obtained; expressed in transfected cells; host or cells: LNCaP-FGC

Compound	growth of JDCaP-hr [1]	transcription activity of ARaiv1 (luciferase activity) [2]
Cc1cc(/C=C/c2ccc3cc(N(C)C)ccc3[n+]2C)c(C)n1-c1ccccc1 [PP, Pyrvinium pamoate]	remarkably inhibits	–
COC1=C2C[C@@H](C)C[C@H](OC)[C@H](O)[C@@H](C)/C=C(\C)[C@H](OC(N)=O)[C@@H](OC)/C=C\C=C(/C)C(=O)NC(=CC1=O)C2=O [geldanamycin]	remarkably inhibited	inhibited
